In article doi:10.1101/2020.04.12.037986:
No constants are given. Whether binding was seen depends on the method and setting. Binding seen in cells or lysates may run through a third protein. Some entries that bind do so weakly or less than the wild type.

Biological target: T1, phospho TAK1-Thr184/187 (human (endogenous in MDA-MB-231 and T47D)) (UniProt O43318)
T1 sequence (chain, phospho TAK1-Thr184/187 (by the antibody used)): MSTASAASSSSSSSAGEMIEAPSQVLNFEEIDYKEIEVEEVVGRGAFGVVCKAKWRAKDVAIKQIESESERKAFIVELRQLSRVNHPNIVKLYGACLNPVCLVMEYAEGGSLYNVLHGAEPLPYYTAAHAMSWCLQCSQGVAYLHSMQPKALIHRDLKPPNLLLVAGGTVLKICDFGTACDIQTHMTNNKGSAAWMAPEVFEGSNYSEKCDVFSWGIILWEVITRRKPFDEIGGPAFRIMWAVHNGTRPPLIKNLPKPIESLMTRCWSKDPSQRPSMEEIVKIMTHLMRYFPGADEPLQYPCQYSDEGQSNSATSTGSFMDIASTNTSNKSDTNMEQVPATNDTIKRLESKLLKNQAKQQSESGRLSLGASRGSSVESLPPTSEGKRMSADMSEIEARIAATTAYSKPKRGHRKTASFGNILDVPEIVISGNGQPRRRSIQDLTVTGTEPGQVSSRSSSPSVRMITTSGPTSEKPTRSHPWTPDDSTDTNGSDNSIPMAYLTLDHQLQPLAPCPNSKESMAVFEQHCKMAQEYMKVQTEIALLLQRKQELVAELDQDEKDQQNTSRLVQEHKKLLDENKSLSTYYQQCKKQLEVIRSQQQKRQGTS
Assay: co-IP

- binding: binds
B1: TAB1 (protein, UniProt Q15750 1-504)
chain: MAAQRRSLLQSEQQPSWTDDLPLCHLSGVGSASNRSYSADGKGTESHPPEDSWLKFRSENNCFLYGVFNGYDGNRVTNFVAQRLSAELLLGQLNAEHAEADVRRVLLQAFDVVERSFLESIDDALAEKASLQSQLPEGVPQHQLPPQYQKILERLKTLEREISGGAMAVVAVLLNNKLYVANVGTNRALLCKSTVDGLQVTQLNVDHTTENEDELFRLSQLGLDAGKIKQVGIICGQESTRRIGDYKVKYGYTDIDLLSAAKSKPIIAEPEIHGAQPLDGVTGFLVLMSEGLYKALEAAHGPGQANQEIAAMIDTEFAKQTSLDAVAQAVVDRVKRIHSDTFASGGERARFCPRHEDMTLLVRNFGYPLGEMSQPTPSPAPAAGGRVYPVSVPYSSAQSTSKTSVTLSLVMPSQGQMVNGAHSASTLDEATPTLTNQSPTLTLQSTNTHTQSSSSSSDGGLFRSRPAHSLPPGEDGRVEPYVDFAEFYRLWSVDHGEQSVVTAP
